Assay results: patent US20250019427A1
Residue numbers refer to the chain shown, from its start. These are yes or no findings as the source states them, for the method shown. Some binding calls cover weakened binding; strength is not graded here. Values belong to the binder of their own block, whether it stands above or below them.

Amino acid sequences for entries named in this document (tags omitted). A change or cut given only in a name is not applied to a line headed by its entry. Residues count along the entry.
UniProt P39905, residues 78-211: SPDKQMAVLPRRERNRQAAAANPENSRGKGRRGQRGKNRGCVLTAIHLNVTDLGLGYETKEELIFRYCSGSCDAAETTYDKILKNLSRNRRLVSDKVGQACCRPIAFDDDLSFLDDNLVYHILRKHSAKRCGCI
UniProt G7PWZ3: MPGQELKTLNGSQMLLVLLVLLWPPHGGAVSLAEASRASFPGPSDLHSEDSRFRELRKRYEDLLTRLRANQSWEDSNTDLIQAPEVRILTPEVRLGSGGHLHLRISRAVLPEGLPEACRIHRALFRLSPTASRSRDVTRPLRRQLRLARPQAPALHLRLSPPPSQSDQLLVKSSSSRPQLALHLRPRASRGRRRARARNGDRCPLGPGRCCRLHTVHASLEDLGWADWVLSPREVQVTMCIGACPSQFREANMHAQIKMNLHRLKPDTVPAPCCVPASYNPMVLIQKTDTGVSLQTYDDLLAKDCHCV
UniProt Q9Z0J7, residues 189-303: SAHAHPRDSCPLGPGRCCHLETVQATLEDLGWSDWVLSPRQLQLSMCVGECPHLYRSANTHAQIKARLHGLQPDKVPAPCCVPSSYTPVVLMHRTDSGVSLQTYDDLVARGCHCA

How the values were obtained:
[1] = target: GDNF (UniProt P39905); assay: Octet BLI, IgG on tip, avid; P.F. = binder with poor fit
[2] = target: Cyno GDF15 Fc (cyno) (UniProt G7PWZ3); assay: Octet BLI (Tables 5A, 5B)
[3] = target: Mouse GDF15 Fc (mouse) (UniProt Q9Z0J7); assay: Octet BLI (Tables 5A, 5B)
[4] = target: Mouse GDF15 Fc (mouse) (UniProt Q9Z0J7); assay: Octet BLI, Fab monovalent; P.F. = binder with poor fit

binding [1]: binds
B1: Clone P IgG (antibody, V domains shown)
VH: QVQLVQSGAEVKKPGATVKVSCKASGYTFDSYGIHWVRQAPGQGLEWMGWITAYSGDTVYAQKLQGRVTMTTDTSTSTAYMELRSLRSDDTAVYYCARESGQTSSALGPWGQGTLVTVSS
VL: DIQMTQSPSSVSASVGDRVTITCRASQGISRWLAWYQQKPGKAPKLLIYAASSLQSGVPSRFSGSGSGTDFTLTISSLQPEDFATYYCQQGASFPLTFGGGTKVEIKR

binding [2]: binds
binding [3]: binds
binding [4]: binds
B2: Clone J Fab (Fab, V domains shown)
VH: QVQLVQSGAEVKKPGASVKVSCKASGYTFTSYGINWVRQAPGQGLEWMGWIDAYSGSTNYAQKLQGRVTMTTDTSTSTAYMELRSLRSDDTAVYYCARGPGQYADVDVWGQGTMVTVSS
VL: DIQMTQSPSSVSASVGDRVTITCRASQGISSWLAWYQQKPGKAPKLLIYAASSLQSGVPSRFSGSGSGTDFTLTISSLQPEDFATYYCQQANSFPITFGGGTKVEIK

binding [2]: binds
binding [3]: binds
B3: Clone T Fab (Fab, V domains shown)
VH: B2 VH with D52T, S57D
VL: B2 VL with N92S, S93Q

binding [2]: binds
binding [3]: binds
B4: Clone I Fab (Fab, V domains shown)
VH: B2 VH with S31D, Y32E, D52T, S57D, N59V
VL: B2 VL

binding [2]: binds
binding [3]: binds
B5: Clone L Fab (Fab, V domains shown)
VH: QVQLVQSGAEVKKPGASVKVSCKASGYTFASYDIIWVRQAPGQGLEWMGWISALSGDTVYAQKLQGRVTMTTDTSTSTAYMELRSLRSDDTAVYYCARTRHDTSGIRFDYWGQGTLVTVSS
VL: B2 VL with S30D, A91V, N92H

binding [2]: binds
binding [3]: binds
binding [4]: binds
B6: Clone P Fab (Fab, V domains shown)
VH: B1 VH
VL: B2 VL with S31R, A91G, N92A, I96L

binding [2]: binds
binding [3]: binds
B7: Clone O Fab (Fab, V domains shown)
VH: B1 VH with Y32L, I34M, H35S, W50Y, T52S, A53T, T103Q, S104V, G108D
VL: B2 VL with S31R, A91G, N92A, I96L

binding [2]: binds
binding [3]: binds
B8: Clone E Fab (Fab, V domains shown)
VH: B2 VH with D52T, S57D
VL: B2 VL

binding [2]: binds
binding [3]: binds
B9: Clone K Fab (Fab, V domains shown)
VH: B5 VH with A30T, S31N, Y32E, D33G, I35S, L54Y, S55T, G56A, V59F, I106L
VL: B2 VL with S30D, A91V, N92H

binding [1]: binds
B10: Clone J IgG (antibody, V domains shown)
VH: B2 VH
VL: B1 VL with R31S, G91A, A92N, L96I

binding [2]: binds
binding [3]: binds
B11: Clone S Fab (Fab, V domains shown)
VH: B2 VH with D52T, S57D
VL: B2 VL with M4L, S31P
